The source of these data is paper PMC11612967.

To fix the notation:
T1: S. cerevisiae Nse2 (S. cerevisiae), P38632
T1 chain: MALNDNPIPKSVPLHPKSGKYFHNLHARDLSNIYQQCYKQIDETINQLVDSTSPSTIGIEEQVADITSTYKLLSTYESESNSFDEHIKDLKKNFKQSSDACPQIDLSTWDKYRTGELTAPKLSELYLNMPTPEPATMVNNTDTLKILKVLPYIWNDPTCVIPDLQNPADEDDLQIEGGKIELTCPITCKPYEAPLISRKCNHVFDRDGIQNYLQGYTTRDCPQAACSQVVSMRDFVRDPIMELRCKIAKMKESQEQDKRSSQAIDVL

B1: S. cerevisiae Nse3, Q05541 1-303 (protein)
chain: MSSIDNDSDVDLTEDLAVAKIVKENPVARKMVRYILSRGESQNSIITRNKLQSVIHEAAREENIAKPSFSKMFMDINAILYNVYGFELQGLPSKNNMNAGGNGSNSNTNKSMPEPLGHRAQKFILLNNVPHSKNFDDFKILQSAHTYEELIVTGEYIGDDIASGTSNTLESKLSTDRDLVYKGVLSVILCIVFFSKNNILHQELIKFLETFGIPSDGSKIAILNITIEDLIKSLEKREYIVRLEEKSDTDGEVISYRIGRRTQAELGLESLEKLVQEIMGLEKEQTKSLHDDIIKSIGDSYSI
B2: S. cerevisiae Nse4, P43124 1-402 (protein)
chain: MSSTVISRKRRNSTVTEPDSSGETRKQKKSRSDEKSSSSKDGDPQLEFKVLQGYRDLESEMHKGRAQVTRTGDIGVAMDNLNAVDSLFNKVIGIKNNGLFAHDARAMVSISELAQISVRNLKFDDSRSMVNLENIVNSLKRYMLKEHFKLNNIAENRNDLTLAADEQSAADQQEESDGDIDRTPDDNHTDKATSSFKATSMRHSYLQQFSHYNEFSQFNWFRIGALYNTISKNAPITDHLMGPLSIEKKPRVLTQRRRNNDQVGEKITAEKITQHSLNSTQQETTPEQVKKCFKKLSKKLGPEGSINLFKFIIDPNSFSRSIENLFYTSFLIKEGKLLMEHDEEGLPTIKIKQSISHTDSRSKEIERQRRRAAHQNHIIFQMDMPTWRKLIKKYNITSPFLD
B3: S. cerevisiae Nse1, Q07913 1-336 (protein)
chain: MEVHEEQVSAPVTGDATAKYLLQYILSARGICHENALILALMRLETDASTLNTEWSIQQWVDKLNDYINAINVKLNLLGYKIIRINHGIGRNAVTLKAKQNFESFEDNTAIRAHNNDYAVLQSIVLPESNRFFVYVNLASTEETKLATRFNQNEIEFMKWAIEQFMISGETIVEGPALETSIIVKEVNRILVAATGDSNLAKWRKFSTFTVGSTNLFQFQELTATDIEDLLLRLCELKWFYRTQEGKFGIDLRCIAELEEYLTSMYNLNTCQNCHKLAIQGVRCGNESCREENEETGENSLSQIWHVDCFKHYITHVSKNCDRCGSSLITEGVYVI

These are yes or no findings as the source states them, for the method shown. In cells and extracts the contact can be indirect. Some results given as binding are weak or reduced against the parent protein; the word gives no strength.

The assay concerns the target T1, S. cerevisiae Nse2 (S. cerevisiae), …. Kind of assay: pull-down; S. cerevisiae Smc5/6 subunits co-expressed in E. coli Rosetta (DE3), one subunit with a Twin-Strep tag (N- or C-terminal); clarified lysate on Strep-Tactin Sepharose, 1 h at 4°C, 50 mM Tris-HCl pH 7.5, 300 mM NaCl, 5% glycerol; eluted with 2.5 mM desthiobiotin; Coomassie-stained SDS-PAGE. Conditions: remark: other sources report otherwise.
For the molecule B1, the binding result is “binds”. With B2 the entry was “binds”; with B3, “binds”.
